Assays:
Type in all cases: cell-based
H1299_eGFP cells [1] = assay: Cell viability following CAD incubation (CellTiter GLO); settings: human, 20 h
Experimental: The silencing potential of siPLK1-NGs was established through evaluating the cell viability. Hereto, we applied the CellTiter GLO® assay (Promega, Belgium) according to the manufacturer's guidelines. Before initiating the assay, the culture plates and reconstituted assay buffer were placed at room temperature for 30 minutes. Next, the culture medium was replaced by 250 μL fresh cell medium and an equal volume of assay buffer was added. To induce complete cell lysis, the plates were shaken during 2 minutes and the signal was allowed to stabilize the following 10 minutes. 100 μL from each well was subsequently transferred to an opaque 96-well plate, which was measured with a GloMax® 96 Microplate Luminometer (Promega, Belgium). Three biological replicates were performed and data are expressed as the mean cell viability±SEM.
The H1299_eGFP cells were seeded, transfected and treated with the CADs similar to the silencing experiments. Please note that we only applied siCTRL-loaded NGs in this set of experiments. With the interest of evaluating the possible effect of our treatment on cell viability, the CellTiter GLO® assay was performed as described above. Again, three biological replicates were performed and data are expressed as the mean±SEM.

H1299_WT cells = assay: Cholesterol detection with filipin; settings: after siNG transfection
Experimental: Following H1299_WT cell seeding, transfection and DL treatment, the cells were washed once with PBS and fixed with 4% PFA during 1 hour. After washing the samples with PBS, the remaining PFA was quenched with a 1.5 mg/mL glycine solution in PBS during 10 minutes. Next, a 0.1 mg/mL filipin solution in PBS containing 10% FBS was applied for 2 hours. Afterwards, the cells were washed once with PBS containing FBS, once with PBS and finally stored at 4° C. in Vectashield without DAPI (Vector Laboratories, USA). All steps of this labeling procedure were executed at room temperature. The samples were imaged with a LSCM and a 100× oil immersion objective following excitation with the 408 nm laser line.

H1299_eGFP cells [2] = assay: siNG transfection and sequential adjuvant treatment, eGFP silencing by flow cytometry; settings: multiple 2 h treatments, stabilized siRNA, 9 days

With Clc1ccc2c(c1)CCc1cccnc1C2=C1CCNCC1 [(3) Desloratadine, Desloratadine] the “concentration with significant additional cytotoxicity compared to siNGs alone” value (H1299_eGFP cells [1]) was 40 µM, the “cholesterol (filipin) signal area relative to total cell area” value (H1299_WT cells) was “an increase in the signal area relative to the total cell area” and the “kinetics of eGFP silencing” value (H1299_eGFP cells [2]) was “maintain the eGFP silencing over a prolonged period of time”.

From patent publication US11033572B2, “Molecular adjuvants for enhanced cytosolic delivery of active agents” (Universiteit Gent, priority 2017, dated 2021)
